# Measurements reported in patent publication US20110117165A1, “IMPLANTABLE BONE GRAFT MATERIALS” (AFFINERGY, INC., priority 2009, published 2011).
# By UniProt entry, the sequences of proteins in these tests, tags left out. Residues count along the entry.
# UniProt P18075, residues 293-431: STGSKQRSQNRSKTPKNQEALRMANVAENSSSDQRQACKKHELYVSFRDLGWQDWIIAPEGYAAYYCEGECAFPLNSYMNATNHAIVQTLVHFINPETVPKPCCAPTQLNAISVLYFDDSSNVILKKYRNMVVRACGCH
# UniProt P22003, residues 317-454: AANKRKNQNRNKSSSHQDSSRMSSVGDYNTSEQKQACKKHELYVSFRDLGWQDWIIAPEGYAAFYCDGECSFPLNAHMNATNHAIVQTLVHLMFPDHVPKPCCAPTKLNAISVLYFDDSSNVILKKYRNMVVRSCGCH
# UniProt P22004, residues 382-513: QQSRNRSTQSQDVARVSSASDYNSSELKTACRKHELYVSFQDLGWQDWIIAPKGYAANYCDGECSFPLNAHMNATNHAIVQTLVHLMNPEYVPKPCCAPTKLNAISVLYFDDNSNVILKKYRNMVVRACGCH
# UniProt P12643, residues 283-396: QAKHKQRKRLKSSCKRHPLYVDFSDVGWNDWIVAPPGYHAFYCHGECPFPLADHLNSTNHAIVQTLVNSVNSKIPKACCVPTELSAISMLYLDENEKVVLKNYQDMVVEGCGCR
# No constants are given. Whether binding was seen depends on the method and setting. Some results given as binding are weak or reduced against the parent protein; the word gives no strength.
# T1: GDF-7 (UniProt Q7Z4P5)
# T1 sequence (looked up): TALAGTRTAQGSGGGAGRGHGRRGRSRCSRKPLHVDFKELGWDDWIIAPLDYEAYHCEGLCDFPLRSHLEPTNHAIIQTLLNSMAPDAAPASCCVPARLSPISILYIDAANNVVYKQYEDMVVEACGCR
# B1: BMP binding peptide SEQ ID NO: 5 (peptide)
# peptide: SSGPREIWDSLVGVVNPGWSR
# modifications: biotinylated for the streptavidin plate assay of FIG. 14C (position not given)
# B2: BMP binding peptide SEQ ID NO: 6 (peptide)
# peptide: SSGGVGGWALFETLRGKEVSR
# modifications: biotinylated for the streptavidin plate assay of FIG. 14C (position not given)
# B3: BMP binding peptide SEQ ID NO: 7 (peptide)
# peptide: SSVAEWALRSWEGMRVGEASR
# modifications: biotinylated for the streptavidin plate assay of FIG. 14C (position not given)
# B4: BMP binding peptide SEQ ID NO: 1 (peptide)
# peptide: GGGAWEAFSSLSGSRV
# modifications: biotinylated for the streptavidin plate assay of FIG. 14 (position not given)
# B5: BMP binding peptide SEQ ID NO: 2 (peptide)
# peptide: GGALGFPLKGEVVEGWA
# modifications: biotinylated for the streptavidin plate assay of FIG. 14 (position not given)
# Biological target: T1, GDF-7
# Experiment: phage display selection on immobilized GDF-7
row,Binder,binding
1,B1,binds
2,B2,binds
3,B3,binds

# Biological target: BMP-7 (UniProt P18075)
# Experiment: ELISA, biotinylated peptide on streptavidin plate, BMP in solution
row,Binder,binding
1,B4,binds
2,B5,binds

# Biological target: BMP-5 (UniProt P22003)
# Experiment: ELISA, biotinylated peptide on streptavidin plate, BMP at 100 and 10 nM
row,Binder,binding
1,B1,binds
2,B2,binds
3,B3,binds
4,B4,binds
5,B5,binds

# Biological target: BMP-6 (UniProt P22004)
# Experiment: as above
row,Binder,binding
1,B1,binds
2,B2,binds
3,B3,binds
4,B4,binds
5,B5,binds

# Biological target: T2, BMP-2 (UniProt P12643 283-396)
# T2 construct: also called bone morphogenic protein 2
# Experiment: ELISA, biotinylated peptide on streptavidin plate, BMP-2 at 200, 20, 2 nM
row,Binder,binding
1,B4,binds
2,B5,binds
